## Results of single-concentration screens

By UniProt entry, the sequences of proteins in these tests, tags left out.
UniProt I6X8D2, whole entry: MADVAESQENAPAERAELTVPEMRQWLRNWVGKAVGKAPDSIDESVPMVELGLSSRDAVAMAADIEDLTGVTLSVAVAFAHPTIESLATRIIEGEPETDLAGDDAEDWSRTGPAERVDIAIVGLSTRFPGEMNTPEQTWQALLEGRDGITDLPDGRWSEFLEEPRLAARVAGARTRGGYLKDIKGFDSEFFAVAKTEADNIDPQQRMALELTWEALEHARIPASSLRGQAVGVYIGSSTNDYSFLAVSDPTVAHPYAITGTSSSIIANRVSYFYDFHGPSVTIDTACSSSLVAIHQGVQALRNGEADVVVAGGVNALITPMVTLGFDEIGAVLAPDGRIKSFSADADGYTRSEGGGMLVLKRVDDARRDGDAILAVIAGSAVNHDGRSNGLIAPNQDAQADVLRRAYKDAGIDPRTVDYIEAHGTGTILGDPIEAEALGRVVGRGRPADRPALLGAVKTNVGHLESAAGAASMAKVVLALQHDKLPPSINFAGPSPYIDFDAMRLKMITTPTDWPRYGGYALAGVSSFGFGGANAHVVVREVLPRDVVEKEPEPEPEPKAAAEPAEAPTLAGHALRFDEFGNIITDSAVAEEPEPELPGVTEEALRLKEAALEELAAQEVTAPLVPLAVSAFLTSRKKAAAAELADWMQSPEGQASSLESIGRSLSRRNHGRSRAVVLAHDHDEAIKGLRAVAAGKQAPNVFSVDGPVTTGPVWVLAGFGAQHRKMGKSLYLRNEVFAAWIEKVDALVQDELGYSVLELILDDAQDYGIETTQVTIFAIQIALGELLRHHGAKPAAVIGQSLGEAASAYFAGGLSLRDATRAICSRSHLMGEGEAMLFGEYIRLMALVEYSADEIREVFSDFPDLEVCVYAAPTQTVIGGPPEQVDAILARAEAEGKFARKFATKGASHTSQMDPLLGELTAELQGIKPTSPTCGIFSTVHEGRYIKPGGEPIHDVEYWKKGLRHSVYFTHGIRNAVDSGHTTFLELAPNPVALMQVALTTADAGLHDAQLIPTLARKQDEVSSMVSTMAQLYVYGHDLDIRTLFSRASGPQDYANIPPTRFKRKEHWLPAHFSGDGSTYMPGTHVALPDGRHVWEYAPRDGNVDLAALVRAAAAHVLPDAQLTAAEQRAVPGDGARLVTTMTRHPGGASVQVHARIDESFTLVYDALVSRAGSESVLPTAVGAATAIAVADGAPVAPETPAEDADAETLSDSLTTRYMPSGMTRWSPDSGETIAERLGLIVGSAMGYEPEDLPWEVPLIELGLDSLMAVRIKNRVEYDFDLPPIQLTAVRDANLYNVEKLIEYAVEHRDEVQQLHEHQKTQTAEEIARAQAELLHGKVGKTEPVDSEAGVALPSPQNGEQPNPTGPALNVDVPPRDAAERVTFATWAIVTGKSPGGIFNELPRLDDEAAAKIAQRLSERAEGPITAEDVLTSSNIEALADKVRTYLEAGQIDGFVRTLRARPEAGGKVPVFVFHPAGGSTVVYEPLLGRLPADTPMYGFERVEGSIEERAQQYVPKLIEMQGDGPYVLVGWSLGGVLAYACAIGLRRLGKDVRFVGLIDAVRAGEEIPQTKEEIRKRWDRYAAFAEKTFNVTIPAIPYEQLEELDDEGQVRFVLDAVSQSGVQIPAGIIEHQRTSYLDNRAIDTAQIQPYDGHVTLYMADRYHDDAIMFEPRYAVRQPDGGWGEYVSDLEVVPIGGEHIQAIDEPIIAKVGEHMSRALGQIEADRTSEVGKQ
UniProt P9WPC5, whole entry: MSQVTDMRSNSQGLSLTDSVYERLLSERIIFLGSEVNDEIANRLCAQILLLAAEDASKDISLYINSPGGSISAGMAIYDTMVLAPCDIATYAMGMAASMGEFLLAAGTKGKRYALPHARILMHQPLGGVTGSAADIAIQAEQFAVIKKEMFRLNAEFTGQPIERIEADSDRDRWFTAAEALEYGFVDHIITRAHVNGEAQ
UniProt P9WPC3, whole entry partner: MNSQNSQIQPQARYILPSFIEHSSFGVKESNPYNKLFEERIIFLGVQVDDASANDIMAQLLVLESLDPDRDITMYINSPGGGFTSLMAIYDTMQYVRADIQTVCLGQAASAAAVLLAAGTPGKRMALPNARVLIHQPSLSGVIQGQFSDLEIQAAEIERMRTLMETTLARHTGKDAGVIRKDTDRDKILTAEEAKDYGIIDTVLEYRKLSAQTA

Source: ChEMBL document CHEMBL3988442, “University of Dundee, Small-Polar-MMV Screening Library” (2021).

A: 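Cell assay of Leishmania donovani living inside macrophages; the read-out is not stated. Compounds at 30 µM. Higher reads as stronger inhibition (inferred: compounds with an IC50 in retests scored well above the rest). Of about 69,000 compounds tested this way, about 1,000 (1.5%) reached 50% or more in at least one test.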
B: 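Polyketide synthase Pks13, Mycobacterium tuberculosis (UniProt I6X8D2). Enzyme assay of the thioesterase domain of polyketide synthase 13; the read-out is not stated. Concentration: 30 µM. The record gives no direction; the compounds picked for IC50 retests had high values, so higher reads as stronger inhibition. Of about 67,000 compounds tested this way, about 300 (0.46%) reached 50% or more in at least one test.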
C: 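ClpP1P2, Mycobacterium tuberculosis (UniProt P9WPC5 and UniProt P9WPC3). Protease assay of ClpP1P2, read by the AMC dye that it sets free. Compounds at 50 µM. Direction is inferred from only a few compounds that gave an IC50; most scored high, so higher reads as stronger inhibition. Most other retested compounds had strongly negative values. Size under these conditions: about 69,000 compounds, about 10 of them at 50% or above in at least one test.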
D: 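Whole-parasite assay of Trypanosoma brucei over 72 hours; the read-out is not stated. Tested at 30 µM. The record gives no direction; compounds that gave an IC50 in retests scored well above the rest, so higher reads as stronger inhibition. Values scatter widely below zero; nearly all retest evidence comes from the higher of the two concentrations used. About 64,000 compounds were tested under these conditions; 1.5% (about 940) showed 50% or more at least once.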

Values are the deposited “Percent Effect”, in %.
The controls that fix the scale are not given in the record; negative values are as filed.
Compounds were drawn at random from those tested, without regard to their results.
Two or more numbers in one place are separate tests of the same structure; such repeats can differ widely.
A dash means the value is not listed here; it may have been measured.

| # | SMILES | A | B | C | D |
|---|---|---|---|---|---|
| 1 | `CC(=O)N1CC2(CCNCC2)c2cc(C)ccc21` | -23.3 | - | 13.06 | -11.49 |
| 2 | `CCC(=O)N(C)C1CCN(Cc2ncc(C)c(OC)c2C)CC1` | 40.64 | -12.66 | 10.37 | -0.07005 |
| 3 | `O=C(Nc1ccccc1CCc1ccccn1)NC1CCOCC1` | -19.07 | 1.184 | 2.971 | -83.79 |
| 4 | `CC(C)(CN1CCCC1)CN1CCC(Cn2cc(CCO)nn2)CC1` | -6.366 | -12.31 | -16.17 | - |
| 5 | `CC(=O)OC1CN(c2nc3c(C(F)(F)F)cccc3s2)C1` | -8.077 | 11.29 | -1.942 | -21.25 |
| 6 | `Cc1cc(C)n(CC2CCCCN2C(=O)CCc2ccncc2)n1` (stereo not drawn) | -2.198 | 2.059 | -0.1787 | -9.136 |
| 7 | `Cc1ccccc1C(=O)NC[C@@H]1CCN(C(=O)CN2CCCC2)C[C@H]1O` | -11.02 | 0.7609 | -3.588 | -48.63 |
| 8 | `CC(C)CC1CC(=O)Nc2c1cnn2Cc1ccco1` (stereo not drawn) | 5.351 & -13.61 | -16.31 | -8.797 | -10.02 |
| 9 | `CCN(CC)CC1CCN(Cc2ncc(C(C)(C)C)o2)CC1` | -33.56 | 0.5564 | 12.02 | 0.5353 |
| 10 | `Cc1cc(CN2CCC(CNC(=O)c3ccc4[nH]cnc4c3)C2)[nH]n1` (stereo not drawn) | 17.95 | -21.74 | -1.224 | -280.9 |
| 11 | `CC1CN(CCOc2cccc(C#N)c2)CCN1Cc1nccn1C` (stereo not drawn) | 9.447 | -11.69 | -22.45 | -7.119 |
| 12 | `[H][C@]12CN(c3ncc(CC)cn3)C[C@@]1([H])S(=O)(=O)CC[C@@H]2C(=O)NC(C)C` | 18.25 | - | - | -97.19 |
| 13 | `COc1ccc(CN2C[C@@H]3CN(CCO)C[C@@H]3C2=O)cc1` | - | -19.91 | -2.963 | - |
| 14 | `CN(C)C(=O)N1CCC(C(=O)NCCNc2ncccc2C#N)CC1` | -3.132 | 11.89 | -11.51 | 5.794 |
| 15 | `O=C(c1ccc(O)nc1)N1Cc2ccccc2OC2(CCOCC2)C1` | 14.3 & 15.37 | 8.642 | -1.484 | -13.17 |
| 16 | `CCn1nc2ccc(S(=O)(=O)N3CCSCC3)cn2c1=O` | 8.958 | -11.37 | 23.83 | -6.383 |
| 17 | `Cc1nc(C2CCCNC2)cc(N(Cc2c(C)nn(C)c2C)C2CC2)n1` (stereo not drawn) | 9.616 | -15.38 | -4.36 | -1.862 |
| 18 | `COc1ccc(CN2CCn3cc(Cn4cccn4)nc3C2)cc1.O=C(O)C(F)(F)F` | -5.977 | - | - | -17.5 |
| 19 | `Cc1ccn(CCC(=O)N2CCCC(Cc3cccnc3)C2)n1` (stereo not drawn) | 9.543 & 8.593 | 15.19 | -1.347 | -11.12 |
| 20 | `Cc1ccc(N(CCC#N)C(=O)CN2CCCC2c2ccsc2)cc1` (stereo not drawn) | 43.62 | -11.29 | -26.13 | - |
| 21 | `O=C(CN1CCCC1Cn1cccn1)NC1CCN(C2CC2)CC1` (stereo not drawn) | -10.62 | -28.03 | -11.87 | -42.53 |
| 22 | `Cc1cc(CNCC2CNc3ccnn3C2)no1` (stereo not drawn) | -23.01 | -20.51 | -5.296 | -28.74 |
| 23 | `Cn1nc(C2CC2)c2c1NC(=O)CC2c1cc(CN2CCCC2)cs1` (stereo not drawn) | 38.5 | -35.64 | 4.613 | 0.2039 |
| 24 | `OC1(CNc2ccc(F)cc2)CCNCC1` | 14.67 | -10.02 | -11.09 | - |
| 25 | `O=C(c1cncc(Br)c1)N1CCCc2ccc(F)cc21` | 14.67 | -21.01 | -4.82 | -40.04 |
| 26 | `Cc1cc(CN(C)C(=O)NC2CCN(Cc3ccccc3)C2)no1` (stereo not drawn) | 3.58 | -11.11 | 15.22 | 16.23 |
| 27 | `CCS(=O)(=O)CC(C)N(C)C(=O)NCCc1cccc(F)c1F` (stereo not drawn) | 11.73 | -42.91 | -1.52 | -18.1 |
| 28 | `Cc1ccsc1CNC(=O)CC1CN(C(=O)OC(C)(C)C)C1` | 16.04 | -2.026 | -22.79 | -13.46 |
| 29 | `O=C(NC[C@H]1OC[C@@H](NCc2cccs2)[C@@H]1O)N1CCOCC1` | 32.44 | -0.141 | 9.291 | -54.65 |
| 30 | `COc1ccc2[nH]nc(CN3CCN(Cc4cccc(F)c4)CC3)c2c1` | 11.61 | -17.59 | -8.64 | -8.39 |
| 31 | `CN(Cc1cccc2cnccc12)C(=O)CCc1n[nH]c2c1CCCC2` | 20.7 | -39.64 | 5.013 | -15.31 |
| 32 | `CC(C)n1[nH]c(=O)c2c1NC(=O)CC2c1ccc(S(C)(=O)=O)cc1` (stereo not drawn) | -42.22 | -31.26 | -4.954 | 4.524 |
| 33 | `CS(=O)(=O)N1CCO[C@@H]2CN(C(=O)c3ccnnc3)C[C@@H]2C1` | - | 5.383 | -15.62 | - |
| 34 | `Cc1nc(C2CN(Cc3ccccc3C)CCO2)no1` (stereo not drawn) | 3.785 | -6.717 | -10.87 | -23.18 |
| 35 | `O=C(NS(=O)(=O)Cc1ccc(F)cc1)C1CCOc2ccccc21` (stereo not drawn) | -5.924 | -27.59 | 6.686 | -0.1406 |
| 36 | `Cc1nn(C)cc1-c1cc(C(F)F)nc(NC2CCCCC2)n1` | -0.6628 | 12.84 | 4.318 | -20.78 |
| 37 | `Cc1cccc(CN2C[C@@H](F)[C@@H](OCc3nc4ccccc4[nH]3)C2)n1` | 36.66 | -40.26 | -3.363 | 9.107 |
| 38 | `Cc1nc(CN2C(=O)CCC23CCN(c2ncccn2)CC3)cs1` | - | -2.634 | 4.905 | - |
| 39 | `NC(=O)NC(=O)CN1CCN(CC2CC2)c2ccccc21` | -25 | 13.8 | -8.44 | -34.81 |
| 40 | `O=C(Nc1ccc(F)cc1)N1CCC(CO)(Nc2ccccc2)CC1` | 1.566 | -12.87 | 12.43 | -32.79 |
| 41 | `COc1ccccc1OCCCN1CC=C(c2cnn(C)c2)CC1` | -5.262 | -31.98 | 1.615 | -13.65 |
| 42 | `CCc1cccc(CC(=O)NC2CCN(C(=O)NC(C)(C)C)CC2)c1` | 2.893 | 8.616 | -13.89 | -92.94 |
| 43 | `Cc1ccc(F)cc1C(=O)NCc1ccc(C(=O)O)o1` | -6.675 | -16.1 | -5.94 | -36.36 |
| 44 | `COc1ccc(CNc2c(C)cnc3c2c(=O)n(C)c(=O)n3C)cc1` | 20.86 & -3.282 | -3.282 | 1.37 | -22.36 |
| 45 | `O=C(O)C(F)(F)F.O=C(c1cccnc1)N1C[C@@H](c2ccccc2)[C@@]2(CCNC2=O)C1` | 22.62 | - | - | -72.72 |
| 46 | `[H][C@]12CN(c3nccs3)CC[C@@]1(O)CCN(S(=O)(=O)N(C)C)C2` | -25.09 | - | - | -55.97 |
| 47 | `Cc1cc(C)n(C2CN(CC(=O)N(C)Cc3ccsc3)C2)n1` | 20.43 | -2.806 | -0.7092 | 62.05 |
| 48 | `Cc1ccc2c(c1)OC(C)CN2C(=O)CCc1cccnc1` (stereo not drawn) | 11.17 | 1.577 | 0.2828 | -19.71 |
| 49 | `CCN1CC2(CCN(C(=O)C(C)Oc3ccc(F)cc3Cl)CC2)CC1=O` (stereo not drawn) | 36.83 | - | 5.57 | -28.93 |
| 50 | `Cc1noc(C(C)N2CCN(CCn3ccccc3=O)CC2)n1` (stereo not drawn) | 29.89 | -36.63 | 6.979 | -4.606 |
| 51 | `O=C(O)C(F)(F)F.[H][C@@]12CN(Cc3ccc(OC)cc3)C[C@]1([H])C(=O)N(c1ccsc1)C2` | -36.06 | - | - | - |
| 52 | `O=C(Nc1ccc(-c2nnc[nH]2)cc1)C1CCN1Cc1ccccc1` (stereo not drawn) | 0.2934 | -7.99 | -3.276 | 6.048 |
| 53 | `Cc1n[nH]c(C)c1CCc1ccc(S(C)(=O)=O)cc1` | 10.03 | 4.155 | -0.2753 | -56.81 |
| 54 | `CCc1n[nH]c(C2CN(CCS(C)(=O)=O)CCO2)n1` (stereo not drawn) | 13.41 | - | 9.97 | 3.346 |
| 55 | `COc1ccccc1CNC(=O)CN(C)C(C)c1nccs1` (stereo not drawn) | 6.619 | -10.04 | 0.5035 | -18.8 |
| 56 | `Cc1cccc(C(=O)NCCCN2CCN(c3ccccc3)CC2)c1` | -6.414 | -9.047 | -14.65 | -12.57 |
| 57 | `CCc1cc(O)nc(C2CCCN2C(=O)c2cc(C)no2)n1` (stereo not drawn) | -38.06 | -14.51 | 17.31 | -30.82 |
| 58 | `NCCc1nc(N(Cc2nccs2)C2CC2)c2ccccc2n1` | -16.71 | -2.536 | 4.49 | -31.84 |
| 59 | `O=C(NCCn1nc2ccccn2c1=O)c1cc(C2CC2)[nH]n1` | -17.47 | 5.43 | -11.57 | -22.57 |
| 60 | `CCOc1ccc(CC(CNC(=O)c2occc2C)C(N)=O)cc1` (stereo not drawn) | 13.6 | -20.39 | 5.547 | 1.891 |
| 61 | `CCn1ccnc1CN1CCC(CCC(=O)Nc2ccccc2Cl)CC1` | -21.22 | -3.131 | -21.49 | 4.362 |
| 62 | `Cn1cc(NCCOc2ccc(F)cc2)cn1` | -1.239 | 0.6154 | 4.991 | -22.12 |
| 63 | `CN(Cc1ccc(Cl)s1)C(=O)CN(C)C1CCc2ccccc21` (stereo not drawn) | -0.7941 | -24.2 | -8.378 | -20.28 |
| 64 | `Cc1ccccc1C(O)c1ccncc1` (stereo not drawn) | 34.65 | -6.027 | 2.594 | -29.11 |
| 65 | `CC(C)(C)OC(=O)N1CCCc2ccc(NCc3ccon3)cc21` | -9.573 | -18.31 | -4.858 | -35.08 |
| 66 | `CCNC(=O)c1cc(OC)c2cc(F)cc(C)c2n1` | 25.28 | 3.562 | -7.205 | -33.91 |

Some entries from above, unchanged:

SMILES	A	B	C	D
Cc1cc(CNCC2CNc3ccnn3C2)no1 (stereo not drawn)	-23.01	-20.51	-5.296	-28.74
COc1ccc(CN2CCn3cc(Cn4cccn4)nc3C2)cc1.O=C(O)C(F)(F)F	-5.977	-	-	-17.5
CCc1cccc(CC(=O)NC2CCN(C(=O)NC(C)(C)C)CC2)c1	2.893	8.616	-13.89	-92.94
Cc1ccccc1C(=O)NC[C@@H]1CCN(C(=O)CN2CCCC2)C[C@H]1O	-11.02	0.7609	-3.588	-48.63
CC(C)n1[nH]c(=O)c2c1NC(=O)CC2c1ccc(S(C)(=O)=O)cc1 (stereo not drawn)	-42.22	-31.26	-4.954	4.524
Cc1ccc(F)cc1C(=O)NCc1ccc(C(=O)O)o1	-6.675	-16.1	-5.94	-36.36
O=C(CN1CCCC1Cn1cccn1)NC1CCN(C2CC2)CC1 (stereo not drawn)	-10.62	-28.03	-11.87	-42.53
Cc1cccc(C(=O)NCCCN2CCN(c3ccccc3)CC2)c1	-6.414	-9.047	-14.65	-12.57